Test results taken from publication PMC6050706.
No constants are given. Whether binding was seen depends on the method and setting. Some binding calls cover weakened binding; strength is not graded here.

What was measured:
Test in all cases: peptide or protein array; NAPPA: C-terminally GST-tagged P. vivax fragments expressed in situ from printed cDNA with rabbit reticulocyte lysate and captured by spotted anti-GST polyclonal antibody; 1 µg cDNA of N-terminally Halo-tagged Pv12 (query) co-expressed in the same IVTT mix; 90 min at 30 °C and 30 min at 15 °C; detected with anti-Halo antibody; triplicate arrays, 16 sub-arrays each; median normalized value > 1 taken as positive
[1] = target: 6-Cysteine protein 41 (Pv41), C-terminal GST tag, on the array (Plasmodium vivax) (UniProt A5KAP6)
[2] = target: Merozoite surface protein 1 (PvMSP1) 42 kDa fragment, C-terminal GST tag, on the array (Plasmodium vivax) (UniProt A5K724)
[3] = target: Merozoite surface protein 8 (PvMSP8), C-terminal GST tag, on the array (Plasmodium vivax) (UniProt A5KAU1)

Measured: binding

6-Cysteine protein 12 (Pv12), N-terminal Halo tag, query protein (from UniProt A5K1W7 27-336) (domain or fragment)
binds: all assays above
